The record followed here is paper PMC5640807.

Amino acid sequences for entries named in this document (tags omitted). Residues count along the entry.
UniProt Q69ZK9, residues 15-836: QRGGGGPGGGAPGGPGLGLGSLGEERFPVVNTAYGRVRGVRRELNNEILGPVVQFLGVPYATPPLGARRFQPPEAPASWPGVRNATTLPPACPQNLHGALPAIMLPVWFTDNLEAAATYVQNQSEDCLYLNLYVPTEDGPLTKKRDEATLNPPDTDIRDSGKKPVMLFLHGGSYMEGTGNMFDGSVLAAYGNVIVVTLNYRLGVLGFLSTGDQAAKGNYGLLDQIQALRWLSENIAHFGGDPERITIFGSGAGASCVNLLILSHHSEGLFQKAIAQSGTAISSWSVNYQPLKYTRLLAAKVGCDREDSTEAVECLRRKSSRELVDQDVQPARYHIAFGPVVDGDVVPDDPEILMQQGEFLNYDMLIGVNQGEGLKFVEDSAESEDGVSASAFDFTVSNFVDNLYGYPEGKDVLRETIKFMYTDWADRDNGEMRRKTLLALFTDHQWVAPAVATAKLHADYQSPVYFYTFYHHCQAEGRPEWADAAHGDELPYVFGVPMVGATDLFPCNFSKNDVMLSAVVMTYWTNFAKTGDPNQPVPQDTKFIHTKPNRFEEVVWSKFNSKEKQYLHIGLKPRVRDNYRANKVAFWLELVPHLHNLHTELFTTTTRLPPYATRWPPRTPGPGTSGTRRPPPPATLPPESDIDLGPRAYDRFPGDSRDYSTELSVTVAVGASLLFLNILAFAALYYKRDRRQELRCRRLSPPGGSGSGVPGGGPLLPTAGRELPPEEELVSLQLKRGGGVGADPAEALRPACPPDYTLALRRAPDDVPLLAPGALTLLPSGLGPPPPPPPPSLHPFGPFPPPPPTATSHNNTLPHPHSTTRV

These are yes or no findings as the source states them, for the method shown. In cells and extracts the contact can be indirect. Some binding calls cover weakened binding; strength is not graded here. Tags and fused reporters may be left off the sequences shown.

The assay deals with T1, LHFPL4 (Lipoma HMGIC Fusion Partner-Like 4), endogenous in mouse brain (mouse (endogenous in mouse brain)) (UniProt Q5U4E0).
T1 sequence: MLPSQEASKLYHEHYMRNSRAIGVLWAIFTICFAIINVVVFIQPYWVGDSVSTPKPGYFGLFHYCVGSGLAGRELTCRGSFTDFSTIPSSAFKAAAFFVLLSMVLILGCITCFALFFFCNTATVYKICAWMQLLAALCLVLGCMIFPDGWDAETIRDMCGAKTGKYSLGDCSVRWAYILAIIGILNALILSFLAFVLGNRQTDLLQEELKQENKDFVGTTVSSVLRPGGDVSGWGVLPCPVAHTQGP
The experiment in a line: co-IP; WT and Lhfpl4-/- mouse brain lysates; immunoprecipitation with an anti-LHFPL4 antibody; western blot.

Turning to “neuroligin2, endogenous in mouse brain (from UniProt Q69ZK9 15-836)”, the binding entry was “binds”.
